These are yes or no findings as the source states them, for the method shown. Binding seen in cells or lysates may run through a third protein.
Target: T1, PALB2 (human (endogenous in human cells; cell line of the IP not named)) (UniProt Q86YC2)
T1 sequence: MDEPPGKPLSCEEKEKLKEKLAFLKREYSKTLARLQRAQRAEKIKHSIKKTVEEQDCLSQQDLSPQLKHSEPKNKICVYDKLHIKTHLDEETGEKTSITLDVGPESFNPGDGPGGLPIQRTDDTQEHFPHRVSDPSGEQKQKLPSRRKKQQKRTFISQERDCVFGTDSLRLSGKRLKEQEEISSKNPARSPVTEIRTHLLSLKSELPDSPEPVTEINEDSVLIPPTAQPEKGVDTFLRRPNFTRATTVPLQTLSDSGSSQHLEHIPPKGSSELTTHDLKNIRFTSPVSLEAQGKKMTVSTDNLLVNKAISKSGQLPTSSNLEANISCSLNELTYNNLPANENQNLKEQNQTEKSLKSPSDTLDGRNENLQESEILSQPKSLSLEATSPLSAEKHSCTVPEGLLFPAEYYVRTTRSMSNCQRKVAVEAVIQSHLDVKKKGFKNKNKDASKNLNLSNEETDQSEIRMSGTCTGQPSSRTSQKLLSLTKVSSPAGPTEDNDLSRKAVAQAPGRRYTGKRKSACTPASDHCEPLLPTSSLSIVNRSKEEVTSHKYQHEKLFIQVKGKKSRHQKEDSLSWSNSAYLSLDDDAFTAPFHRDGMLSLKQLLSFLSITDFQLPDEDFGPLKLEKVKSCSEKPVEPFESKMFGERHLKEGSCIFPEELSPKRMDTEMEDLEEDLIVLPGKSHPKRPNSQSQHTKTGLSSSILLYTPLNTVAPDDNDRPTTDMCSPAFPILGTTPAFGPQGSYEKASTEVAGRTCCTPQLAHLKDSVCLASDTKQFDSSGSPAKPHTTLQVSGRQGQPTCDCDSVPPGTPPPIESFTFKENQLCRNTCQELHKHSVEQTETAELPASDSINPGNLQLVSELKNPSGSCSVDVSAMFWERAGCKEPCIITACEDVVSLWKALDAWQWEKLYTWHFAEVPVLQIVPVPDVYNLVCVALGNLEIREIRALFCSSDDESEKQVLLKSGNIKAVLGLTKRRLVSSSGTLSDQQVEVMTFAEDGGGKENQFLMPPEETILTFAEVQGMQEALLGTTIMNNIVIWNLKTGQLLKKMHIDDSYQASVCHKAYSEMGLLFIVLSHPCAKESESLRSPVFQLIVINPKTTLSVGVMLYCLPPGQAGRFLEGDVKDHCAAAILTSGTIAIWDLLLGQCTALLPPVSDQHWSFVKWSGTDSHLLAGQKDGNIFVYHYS
Assay: co-IP; IP of endogenous PALB2 or RAP80 (2 ug antibody, protein A beads, 4°C) from benzonase-treated lysate in EBC-150 (50 mM Tris pH 7.3, 150 mM NaCl, 0.5% NP-40, 1 mM MgCl2); washes in EBC-EDTA; blots for endogenous proteins; in Figure 6D 6 h after 20 Gy of IR, cells treated with siRNAs against USP26 or USP37 (PALB2-BRCA1 markedly reduced)

- binding: no binding
B1: RAP80 (protein, UniProt Q96RL1 1-719)
chain: MPRRKKKVKEVSESRNLEKKDVETTSSVSVKRKRRLEDAFIVISDSDGEEPKEENGLQKTKTKQSNRAKCLAKRKIAQMTEEEQFALALKMSEQEAREVNSQEEEEEELLRKAIAESLNSCRPSDASATRSRPLATGPSSQSHQEKTTDSGLTEGIWQLVPPSLFKGSHISQGNEAEEREEPWDHTEKTEEEPVSGSSGSWDQSSQPVFENVNVKSFDRCTGHSAEHTQCGKPQESTGRGSAFLKAVQGSGDTSRHCLPTLADAKGLQDTGGTVNYFWGIPFCPDGVDPNQYTKVILCQLEVYQKSLKMAQRQLLNKKGFGEPVLPRPPSLIQNECGQGEQASEKNECISEDMGDEDKEERQESRASDWHSKTKDFQESSIKSLKEKLLLEEEPTTSHGQSSQGIVEETSEEGNSVPASQSVAALTSKRSLVLMPESSAEEITVCPETQLSSSETFDLEREVSPGSRDILDGVRIIMADKEVGNKEDAEKEVAISTFSSSNQVSCPLCDQCFPPTKIERHAMYCNGLMEEDTVLTRRQKEAKTKSDSGTAAQTSLDIDKNEKCYLCKSLVPFREYQCHVDSCLQLAKADQGDGPEGSGRACSTVEGKWQQRLKNPKEKGHSEGRLLSFLEQSEHKTSDADIKSSETGAFRVPSPGMEEAGCSREMQSSFTRRDLNESPVKSFVSISEATDCLVDFKKQVTVQPGSRTRTKAGRGRRRKF

Reference: PMC4538816
